Measured values from US5849771A, “Phosphorylated nitrone derivatives, method for preparing same, and compositions containing said derivatives” (Centre National de la Recherche Scientifique (C.N.R.S.), priority 1995, dated 1998).

Legend:
[1] = EPR spin trapping of HO^. radicals (Fenton's method); conditions: adduct PPN--OH
Method: In this experiment the HO^. radicals were produced by Fenton's method in a 1.1M phosphate buffer at pH=7 in the presence of the […] system. This classical reaction for producing HO^. radicals can be expressed more simply as follows:
H2 O2 +Fe(II)→HO^. +HO-+Fe(III).
The EPR spectrum of the adduct from trapping is recorded approximately 40 s after addition of the ferrous sulphate.
(§1) The stability of these adducts makes it possible to measure the respective coupling constants of the unpaired electron with the nuclei of nitrogen (AN), of hydrogen β to the nitrogen atom (AH) and of phosphorus (AP). These values have been shown together in Table 3 which follows: […]

[2] = EPR spin trapping of O2^.-/HOO^. radicals (hypoxanthine/xanthine oxidase system); conditions: adduct PPN--OOH
Method: For the production of the HOO^. radicals the hypoxanthine/xanthine oxidase system is employed in a 0.1M phosphate buffer maintained at ambient temperature. The oxygen resulting in the formation of the HOO^. radicals is that initially dissolved in the 0.1M phosphate buffer.
The hypoxanthine/xanthine oxidase system contains 0.1M of a phosphate buffer, […] of hypoxanthine, 1 mM of diethylenetriaminepentaacetic acid (DTPA), 0.4 units cm^-3 of xanthine oxidase (marketed by the company Boehringer Mannheim Biochemica Co.), and 0.1M of the nitrone being tested. The EPR spectra of the adducts from trapping are recorded approximately 40 s after the addition of xanthine oxidase.
as §1

CCOP(=O)(OCC)C(C)(C)N([O])C(O)c1ccccc1 (stereo not drawn) [PPN--OH]
AH, coupling constant with hydrogen β to the nitrogen atom [1]: 14.6 G
AN, coupling constant of the unpaired electron with the nucleus of nitrogen [1]: 2.7 G
AP, coupling constant with phosphorus [1]: 43.2 G

CCOP(=O)(OCC)C(C)(C)N([O])C(OO)c1ccccc1 (stereo not drawn) [PPN--OOH]
AH, coupling constant with hydrogen β to the nitrogen atom [2]: 13.5 G
AN, coupling constant of the unpaired electron with the nucleus of nitrogen [2]: 2.1 G
AP, coupling constant with phosphorus [2]: 41.3 G
